Construct, isoform or probe ends are uncertain for at least one entry. No signal at the amounts used counts as a negative. For some of these results: Protein sequences can lack the tags named with them.
Legend:
Experiment in all cases: EMSA
[1] = biological target: Glu3-YqhC (Escherichia coli MG1655 evolved strain Glu3) (UniProt Q46855); conditions: EMSA: 50 mM NaCl, 20 mM Tris-Cl (pH not stated), 1 mM DTT, 10% glycerol; 45 min on ice; native 4-16% gel in TBE at 4 C; recombinant protein; protein details: C-terminal His tag (pET29b+); label: none (SYBR Green gel stain)
[2] = biological target: T1, YqhC wild-type (parent) (Escherichia coli MG1655) (UniProt Q46855); conditions: parent YqhC 5-115 ng/uL; EMSA: 50 mM NaCl, 20 mM Tris-Cl (pH not stated), 1 mM DTT, 10% glycerol; 45 min on ice; native 4-16% gel in TBE at 4 C; recombinant protein; residues 1-318; protein details: C-terminal His tag (pET29b+); label: none (SYBR Green gel stain)
T1 sequence (looked up): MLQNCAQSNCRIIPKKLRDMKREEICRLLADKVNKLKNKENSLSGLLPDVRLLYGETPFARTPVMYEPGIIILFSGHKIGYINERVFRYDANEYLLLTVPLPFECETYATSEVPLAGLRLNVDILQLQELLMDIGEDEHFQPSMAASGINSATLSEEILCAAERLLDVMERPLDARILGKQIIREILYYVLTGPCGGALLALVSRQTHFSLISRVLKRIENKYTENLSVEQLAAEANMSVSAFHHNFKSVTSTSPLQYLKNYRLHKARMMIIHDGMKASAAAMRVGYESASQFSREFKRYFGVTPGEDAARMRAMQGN

[3] = biological target: Glu2-YqhC (Escherichia coli MG1655 evolved strain Glu2) (UniProt Q46855); conditions: EMSA: 50 mM NaCl, 20 mM Tris-Cl (pH not stated), 1 mM DTT, 10% glycerol; 45 min on ice; native 4-16% gel in TBE at 4 C; recombinant protein; protein details: C-terminal His tag (pET29b+); label: none (SYBR Green gel stain)
[4] = biological target: Glu1-YqhC (Escherichia coli MG1655 evolved strain Glu1) (UniProt Q46855); conditions: EMSA: 50 mM NaCl, 20 mM Tris-Cl (pH not stated), 1 mM DTT, 10% glycerol; 45 min on ice; native 4-16% gel in TBE at 4 C; recombinant protein; protein details: C-terminal His tag (pET29b+); label: none (SYBR Green gel stain)

Measured: binding result

CGCCGTAGGTAATCAATACGCGAGCATCGTGAGGAATTTGTTCGCGTAAACCAGCGATTGCGCCTTTACCAAACAGAATGCGGGTTGGGGTGTGCAGATTAAAGTTGTTCATTACTTGCTCCCTTTGCTGGGCCAATATG (double strand) [Negative ctrl probe]
no binding: [1] | [2] | [3] | [4]

Reference: PMC8262776
